Results published in article PMC7272351.

The chains behind the UniProt entries cited, without tags or fusion partners. Where a name states a change or a piece, a line headed by the entry shows the natural chain unless it says otherwise. Residues count along the entry.
UniProt Q9BWN1, residues 455-517: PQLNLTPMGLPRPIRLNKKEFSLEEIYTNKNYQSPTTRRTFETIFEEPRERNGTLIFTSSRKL
UniProt Q15172: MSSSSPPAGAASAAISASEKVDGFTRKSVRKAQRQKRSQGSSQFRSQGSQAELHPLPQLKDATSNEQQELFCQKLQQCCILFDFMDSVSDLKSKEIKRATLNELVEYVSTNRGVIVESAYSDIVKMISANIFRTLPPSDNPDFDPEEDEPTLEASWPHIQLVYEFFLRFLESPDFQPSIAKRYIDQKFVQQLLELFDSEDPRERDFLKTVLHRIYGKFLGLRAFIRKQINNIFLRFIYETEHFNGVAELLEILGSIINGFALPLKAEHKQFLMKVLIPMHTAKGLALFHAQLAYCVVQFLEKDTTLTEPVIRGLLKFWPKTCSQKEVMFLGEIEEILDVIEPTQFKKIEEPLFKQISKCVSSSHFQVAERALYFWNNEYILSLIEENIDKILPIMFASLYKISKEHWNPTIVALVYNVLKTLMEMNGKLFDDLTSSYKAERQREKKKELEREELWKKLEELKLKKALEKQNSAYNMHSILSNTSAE

Biological target: GFP-tagged human PRR14 Tantalus domain (455–517), wild type (human) (UniProt Q9BWN1)
Assay: co-IP; GFP-Trap magnetic agarose beads (GFP nanobody) added to lysates of HeLa cells co-transfected with GFP-Tantalus (bait) and HA-B56α (prey); lysis in 10 mM Tris-HCl pH 7.5, 150 mM NaCl, 0.5 mM EDTA, 0.5% NP-40; 1 h at 4°C; anti-HA western blot; the paper calls it a pulldown

- binding: no binding
Substance: HA-tagged human PP2A B56α with binding pocket mutations (R222E, R226E) (from UniProt Q15172)

No constants are given. Whether binding was seen depends on the method and setting. In cells and extracts the contact can be indirect.
